Values quoted from earlier work, collected in patent publication US20240315283A1, “ISOFUCOSTEROL A KEY NUTRIENT FOR PHYTOSTEROL EATING ANIMALS SUCH AS POLLEN EATING AND ALGAE-EATING AND PLANKTON EATING ORGANISMS” (APIX BIOSCIENCES, priority 2021, published 2024).

Test system: Honeybee worker
Conditions: cited from earlier work

In the case of C/C=C(/CC[C@@H](C)[C@H]1CC[C@H]2[C@@H]3CC=C4C[C@@H](O)CC[C@]4(C)[C@H]3CC[C@]12C)C(C)C [isofucosterol, Isofucosterol], the “Isofucosterol (% total)” value (Honeybee worker, percentage of total bee-relevant phytosterols) is given as 28.73 % total, the “isofucosterol as share of dry weight” value (dry weight of a honeybee) is given as 0.02-0.06% and the “isofucosterol share of total corporeal sterols” value (honeybees) is given as 10-50%.
